pIC50: −log10 of the molar value. Some entries share one result that the patent states for a list of compounds. Starred links: 1 amine or outer side, 2 acyl side, 3 side chain; linkers in the order of their positions; H or OH if unused. Positions of bridges follow the written chain, without caps; N, C: chain ends. Non-standard residues stand in square brackets, D forms with d. Residues, ends and D or L forms follow the SMILES beside them. *: point of attachment. Bip(4'-NHCO-C6H4-3-CH2COOH) = N[C@@H](Cc1ccc(-c2ccc(NC(=O)c3cccc(CC(=O)O)c3)cc2)cc1)C(=O)O; Bip(4'-NHCO-C6H4-4-CH2COOH) = N[C@@H](Cc1ccc(-c2ccc(NC(=O)c3ccc(CC(=O)O)cc3)cc2)cc1)C(=O)O; Bip(4'-NH) = O=C([C@H](Cc1ccc(-c2ccc(N[*:3])cc2)cc1)N[*:1])[*:2]; Bip(4'-COOH) = N[C@@H](Cc1ccc(-c2ccc(C(=O)O)cc2)cc1)C(=O)O; dArg(ω-Bn) = N=C(NCCC[C@@H](N)C(=O)O)NCc1ccccc1; Benzoyl(3-OCH2COOH) = O=C(O)COc1cccc(C(=O)*)c1; Phe(3-CONH2) = NC(=O)c1cccc(C[C@H](N)C(=O)O)c1; X13 = O=C([C@H](Cc1ccc[nH]1)N[*:1])[*:2]; Cha = N[C@@H](CC1CCCCC1)C(=O)O; Tle = CC(C)(C)[C@H](N)C(=O)O; Sar = CNCC(=O)O
Molecular target: TNFα (Homo sapiens, UniProt P01375)
Assay: TNF-Induced HEK-Blue Assay
Assay type: cell-based
Settings: summary statement for all examples; read-out: IC50 values measured in the TNF induced HEK-Blue assay

Sequences of proteins named here, by UniProt entry; tags and fusion partners are left off. Residues count along the entry.
UniProt P01375, 77-233 limits assumed: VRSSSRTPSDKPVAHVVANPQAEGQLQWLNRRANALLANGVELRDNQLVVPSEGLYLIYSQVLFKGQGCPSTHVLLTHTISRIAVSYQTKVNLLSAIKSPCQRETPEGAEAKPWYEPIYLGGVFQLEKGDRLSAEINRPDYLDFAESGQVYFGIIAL

pIC50, ≥ 4.60:
CC(C)C[C@@H]1NC(=O)[C@H](Cc2ccc(O)cc2)NC(=O)[C@H](C(C)C)NC(=O)[C@@H]2CCCN2C(=O)[C@H](C(C)C)NC(=O)[C@@H](CCCNC(=N)NCc2ccccc2)NC(=O)[C@H](CC(=O)O)NC(=O)[C@@H]2CCCN2C(=O)CN(C)C(=O)[C@H](Cc2ccc(-c3ccc(NC(=O)c4cccc(CC(=O)O)c4)cc3)cc2)NC(=O)[C@H](Cc2ccc(-c3ccc(C(=O)O)cc3)cc2)NC(=O)[C@H](CC2CCCCC2)NC(=O)CSC[C@@H](C(=O)NCC(N)=O)NC1=O [Example 583] ({CH2CO}-[Cha][Bip(4'-COOH)][Bip(4'-NHCO-C6H4-3-CH2COOH)][Sar]PD[dArg(ω-Bn)]VPVYLCG-NH2; thioether N-13), CC[C@H](C)[C@@H]1NC(=O)[C@@H](CCCNC(=N)NCc2ccccc2)NC(=O)[C@H](CC(=O)O)NC(=O)[C@H](Cc2cnc[nH]2)NC(=O)CN(C)C(=O)[C@H](Cc2ccc(-c3ccc(NC(=O)c4ccc(CC(=O)O)cc4)cc3)cc2)NC(=O)[C@H](Cc2ccc(-c3ccc(C(=O)O)cc3)cc2)NC(=O)[C@H](CC2CCCCC2)NC(=O)CSC[C@@H](C(=O)NCC(N)=O)NC(=O)[C@H](CC(C)C)NC(=O)[C@H](Cc2cnc[nH]2)NC(=O)[C@H](C(C)C)NC(=O)[C@@H]2CCCN2C1=O [Example 584] ({CH2CO}-[Cha][Bip(4'-COOH)][Bip(4'-NHCO-C6H4-4-CH2COOH)][Sar]HD[dArg(ω-Bn)]IPVHLCG-NH2; thioether N-13), CC[C@H](C)[C@@H]1NC(=O)[C@@H](CCCNC(=N)NCc2ccccc2)NC(=O)[C@H](CC(=O)O)NC(=O)[C@H](Cc2cnc[nH]2)NC(=O)CN(C)C(=O)[C@H](Cc2ccc(-c3ccc(NC(=O)c4cccc(OCC(=O)O)c4)cc3)cc2)NC(=O)[C@H](Cc2ccc(-c3ccc(C(=O)O)cc3)cc2)NC(=O)[C@H](CC2CCCCC2)NC(=O)CSC[C@@H](C(=O)NCC(N)=O)NC(=O)[C@H](CC(C)C)NC(=O)[C@H](Cc2cnc[nH]2)NC(=O)[C@H](C(C)C)NC(=O)[C@@H]2CCCN2C1=O [Example 585] ({CH2CO}-[Cha][Bip(4'-COOH)][Bip(4'-NH)](Benzoyl(3-OCH2COOH))[Sar]HD[dArg(ω-Bn)]IPVHLCG-NH2; thioether N-13), CC[C@H](C)[C@@H]1NC(=O)[C@@H](CCCNC(=N)N)NC(=O)[C@H](CC(=O)O)NC(=O)[C@H](Cc2cnc[nH]2)NC(=O)CN(C)C(=O)[C@H](Cc2ccc(-c3ccc(NC(=O)c4cccc(OCC(=O)O)c4)cc3)cc2)NC(=O)[C@H](Cc2ccc(-c3ccc(C(=O)O)cc3)cc2)NC(=O)[C@H](CC2CCCCC2)NC(=O)CSC[C@@H](C(=O)NCC(N)=O)NC(=O)[C@H](CC(C)C)NC(=O)[C@H](Cc2cccc(C(N)=O)c2)NC(=O)[C@H](C(C)C)NC(=O)[C@@H]2CCCN2C1=O [Example 586] ({CH2CO}-[Cha][Bip(4'-COOH)][Bip(4'-NH)](Benzoyl(3-OCH2COOH))[Sar]HD[dR]IPV[Phe(3-CONH2)]LCG-NH2; thioether N-13), CC(C)C[C@@H]1NC(=O)[C@H](Cc2cccc(C(N)=O)c2)NC(=O)[C@H](C(C)C)NC(=O)[C@@H]2CCCN2C(=O)[C@H](C(C)C)NC(=O)[C@@H](CCCNC(=N)N)NC(=O)[C@H](CC(=O)O)NC(=O)[C@H](Cc2cnc[nH]2)NC(=O)CN(C)C(=O)[C@H](Cc2ccc(-c3ccc(NC(=O)c4cccc(OCC(=O)O)c4)cc3)cc2)NC(=O)[C@H](Cc2ccc(-c3ccc(C(=O)O)cc3)cc2)NC(=O)[C@H](CC2CCCCC2)NC(=O)CSC[C@@H](C(=O)NCC(N)=O)NC1=O [Example 587] ({CH2CO}-[Cha][Bip(4'-COOH)][Bip(4'-NH)](Benzoyl(3-OCH2COOH))[Sar]HD[dR]VPV[Phe(3-CONH2)]LCG-NH2; thioether N-13), CC[C@H](C)[C@@H]1NC(=O)[C@@H](CCCNC(=N)N)NC(=O)[C@H](CC(=O)O)NC(=O)[C@H](Cc2cnc[nH]2)NC(=O)CN(C)C(=O)[C@H](Cc2ccc(-c3ccc(NC(=O)c4cccc(CC(=O)O)c4)cc3)cc2)NC(=O)[C@H](Cc2ccc(-c3ccc(C(=O)O)cc3)cc2)NC(=O)[C@H](CC2CCCCC2)NC(=O)CSC[C@@H](C(=O)NCC(N)=O)NC(=O)[C@H](CC(C)C)NC(=O)[C@H](Cc2cccc(C(N)=O)c2)NC(=O)[C@H](C(C)C)NC(=O)[C@@H]2CCCN2C1=O [Example 588] ({CH2CO}-[Cha][Bip(4'-COOH)][Bip(4'-NHCO-C6H4-3-CH2COOH)][Sar]HD[dR]IPV[Phe(3-CONH2)]LCG-NH2; thioether N-13), CC[C@H](C)[C@@H]1NC(=O)[C@@H](CCCNC(=N)N)NC(=O)[C@H](CC(=O)O)NC(=O)[C@H](Cc2cnc[nH]2)NC(=O)CN(C)C(=O)[C@H](Cc2ccc(-c3ccc(NC(=O)c4ccc(CC(=O)O)cc4)cc3)cc2)NC(=O)[C@H](Cc2ccc(-c3ccc(C(=O)O)cc3)cc2)NC(=O)[C@H](CC2CCCCC2)NC(=O)CSC[C@@H](C(=O)NCC(N)=O)NC(=O)[C@H](CC(C)C)NC(=O)[C@H](Cc2cccc(C(N)=O)c2)NC(=O)[C@H](C(C)C)NC(=O)[C@@H]2CCCN2C1=O [Example 589] ({CH2CO}-[Cha][Bip(4'-COOH)][Bip(4'-NHCO-C6H4-4-CH2COOH)][Sar]HD[dR]IPV[Phe(3-CONH2)]LCG-NH2; thioether N-13), CC(C)C[C@@H]1NC(=O)[C@H](Cc2cccc(C(N)=O)c2)NC(=O)[C@H](C(C)C)NC(=O)[C@@H]2CCCN2C(=O)[C@H](C(C)C)NC(=O)[C@@H](CCCNC(=N)N)NC(=O)[C@H](CC(=O)O)NC(=O)[C@H](Cc2cnc[nH]2)NC(=O)CN(C)C(=O)[C@H](Cc2ccc(-c3ccc(NC(=O)c4cccc(OCC(=O)O)c4)cc3)cc2)NC(=O)[C@H](Cc2ccc(-c3ccc(C(=O)O)cc3)cc2)NC(=O)[C@H](C(C)(C)C)NC(=O)CSC[C@@H](C(=O)NCC(N)=O)NC1=O [Example 590] ({CH2CO}-[Tle][Bip(4'-COOH)][Bip(4'-NH)](Benzoyl(3-OCH2COOH))[Sar]HD[dR]VPV[Phe(3-CONH2)]LCG-NH2; thioether N-13), CC[C@H](C)[C@@H]1NC(=O)[C@@H](CCCNC(=N)N)NC(=O)[C@H](CC(=O)O)NC(=O)[C@H](Cc2cnc[nH]2)NC(=O)CN(C)C(=O)[C@H](Cc2ccc(-c3ccc(NC(=O)c4cccc(OCC(=O)O)c4)cc3)cc2)NC(=O)[C@H](Cc2ccc(-c3ccc(C(=O)O)cc3)cc2)NC(=O)[C@H](C(C)(C)C)NC(=O)CSC[C@@H](C(=O)NCC(N)=O)NC(=O)[C@H](CC(C)C)NC(=O)[C@H](Cc2cccc(C(N)=O)c2)NC(=O)[C@H](C(C)C)NC(=O)[C@@H]2CCCN2C1=O [Example 591] ({CH2CO}-[Tle][Bip(4'-COOH)][Bip(4'-NH)](Benzoyl(3-OCH2COOH))[Sar]HD[dR]IPV[Phe(3-CONH2)]LCG-NH2; thioether N-13), CC(C)C[C@@H]1NC(=O)[C@H](Cc2ccc[nH]2)NC(=O)[C@H](C(C)C)NC(=O)[C@@H]2CCCN2C(=O)[C@H](C(C)C)NC(=O)[C@@H](CCCNC(=N)N)NC(=O)[C@H](CC(=O)O)NC(=O)[C@H](Cc2cnc[nH]2)NC(=O)CN(C)C(=O)[C@H](Cc2ccc(-c3ccc(NC(=O)c4cccc(CC(=O)O)c4)cc3)cc2)NC(=O)[C@H](Cc2ccc(-c3ccc(C(=O)O)cc3)cc2)NC(=O)[C@H](C(C)(C)C)NC(=O)CSC[C@@H](C(=O)NCC(N)=O)NC1=O [Example 597] ({CH2CO}-[Tle][Bip(4'-COOH)][Bip(4'-NHCO-C6H4-3-CH2COOH)][Sar]HD[dR]VPV[X13]LCG-NH2; thioether N-13)

— patent US20250145665A1, “MACROCYCLIC PEPTIDES USEFUL AS MODULATORS OF TNF ALPHA” (Bristol-Myers Squibb Company, priority 2023, published 2025)
